Experimental data reported in patent US7527943B2, “Compositions of orthogonal glutamyl-tRNA and aminoacyl-tRNA synthetase pairs and uses thereof” (The Scripps Research Institute, priority 2003, dated 2009).
Some entries share one result that the patent states for a list of compounds.

System: whole halobacterial tRNA
Experiment: in vitro aminoacylation assay with [3H]-glutamic acid, whole halobacterial tRNA
Type: biochemical, Halobacterium sp. NRC-1
Conditions: 750 nM synthetase, 15 minutes at 37° C.
Protocol: In vitro aminoacylation assays: Reactions were carried out as described previously (see, e.g., Hoben, P. and Soll, D. (1985) Glutaminyl-tRNA synthetase of Escherichia coli. Methods Enzymol., 113:55-59). Each 20-μL reaction contained 50 mM Tris-HCl (pH 7.5), 30 mM KCl, 20 mM MgCl2, 0.1 mg/mL BSA, 5 mM glutathione, 2.5 mM ATP, 100 nM 1-[G-^3H]Glutamic acid (Amersham), 750 nM aminoacyl-tRNA synthetase, and 40 μM whole halobacterial tRNA. Reactions were allowed to proceed for 15 minutes at 37° C.
Orthogonality of archaeal glutamyl-tRNA synthetases in E. coli: The ampicillin IC50 measurements described above provide insights into the orthogonality of consensus-designed tRNAs, but provide no information about the orthogonality of archaeal glutamyl-tRNA synthetases in E. coli. To investigate synthetase orthogonality, the AfERS, MnERS, MtERS, and PhERS genes were inserted into a protein overexpression vector. E. coli glutamyl-tRNA synthetase (EcERS) was inserted into the same vector for use as a control. Synthetases were overexpressed in E. coli, purified to homogeneity, and used in an in vitro aminoacylation assay with whole tRNA prepared from either E. coli or the halophilic archaebacterium Halobacterium sp. NRC-1. […] In these experiments, it is unclear why AfERS and MmERS could not aminoacylate whole halobacterial tRNA in vitro (≦5 pmol/L). […]

Molecule	aminoacylation of whole archaeal (halobacterial) tRNA with [3H]-glutamic acid [pmol/L]
AfERS: glutamyl-tRNA synthetase from A. fulgidus (protein, listed as Archaeoglobus fulgidus) VKEVIMKYVVQNAAKYGKASEKAVMGKVMAENPELRKKAKEVLELVKECITEFEALSEEVRKELIKKYSMDSEAKRELETKKLPELEGAEKGKVVMRFAPNPNGPPTLGSARGIIVNGEYAKMYEGKYIIRFDDTDPRTKRPMIEAYEWYLEDIEWLGYKPDEVIYASRRIPIYYDYARKLIEMGKAYTCFCSQEEFKKFRDSGEECPHRNISVEDTLEVWERMLEGDYEEGEVVLRIKTDMRHKDPAIRDWVAFRIIKESHPLVGDKYVVYPTLDFESAIEDHLLGITHIIRGKDLIDSERRQRYIYEYFGWIYPITKHWGRVKIFEFGKLSTSSIKKDIERGKYEGWDDPRLPTLRAFRRRGFEPEAIKSFFLSLGVGENDVSVSLKNLYAENRKIIDRKANRYFFIWGPVKIEIVNLPEKKEVELPLNPHTGEKRRLKGERTIYVTKDDFERLKGQVVRLKDFCNVLLDEKAEFMGFELEGVKKGKNIIHWLPESEAIKGKVIGEREAEGLVERNAVRDVGKVVQFERFAFCKVESADEELVAVYTHP	≤ 5
MmERS: glutamyl-tRNA synthetase from M. mazei (protein, listed as Methanosarcina mazeii) MTLSPEDIKIIEKYALQNAVKYGKAPQPKAVMGKVMGECPQLRADPSGVSAALENIVSEIAKGNPEAWEARLSEIAPELIEALSVKKEPDKGLKPLEGAETGKVVMRFAPNPNGPATLGSSRGMVVNSEYVKVYKGKFILRFDDTDPDIKRPMLEAYDWYMDDFKWLGVVPDQVVRASDRFPIYYDYARKLIEMGKAYVCFCKGEDFKRLKDSKKACPHRDTDPEENLMHWEKMLAGEYEDQQAVLRIKTDIEHKDPALRDWGAFRIRKMSHPRPEIGNKYIVWPLLDFAGAIEDHELGMTHIIRGKDLIDSEKRQTYIYKYFGWTYPKTTHWGRVKIHEFGKFSTSTLRKAIESGEYSGWDDPRLPTIRAIRRRGIRAEALKKFMIEMGVGMTDVSISMESLYAENRKIVDPVANRYFFVWNPVELEIEGMKPVVAKVPRHPTDHARGMREISIENKVLVCAEDIEKLNVGSVLRLKDLCNVEITSLSPLRVKRSETSLEDLKKAKGKIIHWVPVDGIPVKVCGPEGDIEGTGERGIETELDNIVQFERFGFCRIDAVDGENVVAYFAHK	≤ 5
